Results are given in words; binding and its absence hold for the method and conditions named. Binding seen in cells or lysates may run through a third protein. Some binding calls cover weakened binding; strength is not graded here. Sequences can lack the tags named with a protein.
Molecular target: T1, Pdcd4(39–91)luc (Pdcd4 amino acids 39–91 fused to firefly luciferase) (UniProt Q61823)
T1 sequence: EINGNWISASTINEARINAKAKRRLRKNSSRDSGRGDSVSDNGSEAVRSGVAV
Experiment: co-IP; anti-luciferase antibody and Protein A Sepharose on whole-cell extracts of HEK293 cells stably expressing Pdcd4(39-91)luc and transfected with β-TrCP1; cells treated 8 h with DMSO or TPA (10 nM) with or without erioflorin (5 µM), with MG132; IP buffer 50 mM Tris-HCl pH 7.4, 300 mM NaCl, 5 mM EDTA, 1% NP-40; western for β-TrCP

B1: β-transducin repeat-containing protein 1 (β-TrCP1), overexpressed in HEK293 cells (natural protein, UniProt Q9Y297 1-605, looked up)
chain: MDPAEAVLQEKALKFMCSMPRSLWLGCSSLADSMPSLRCLYNPGTGALTAFQNSSEREDCNNGEPPRKIIPEKNSLRQTYNSCARLCLNQETVCLASTAMKTENCVAKTKLANGTSSMIVPKQRKLSASYEKEKELCVKYFEQWSESDQVEFVEHLISQMCHYQHGHINSYLKPMLQRDFITALPARGLDHIAENILSYLDAKSLCAAELVCKEWYRVTSDGMLWKKLIERMVRTDSLWRGLAERRGWGQYLFKNKPPDGNAPPNSFYRALYPKIIQDIETIESNWRCGRHSLQRIHCRSETSKGVYCLQYDDQKIVSGLRDNTIKIWDKNTLECKRILTGHTGSVLCLQYDERVIITGSSDSTVRVWDVNTGEMLNTLIHHCEAVLHLRFNNGMMVTCSKDRSIAVWDMASPTDITLRRVLVGHRAAVNVVDFDDKYIVSASGDRTIKVWNTSTCEFVRTLNGHKRGIACLQYRDRLVVSGSSDNTIRLWDIECGACLRVLEGHEELVRCIRFDNKRIVSGAYDGKIKVWDLVAALDPRAPAGTLCLRTLVEHSGRVFRLQFDEFQIVSSSHDDTILIWDFLNDPAAQAEPPRSPSRTYTYISR
  binding: binds
